In all, about 390,000 compounds went through this assay and about 610 (0.16%) were called active. Inconclusive means that the source gave no clear call. Such entries were picked first, then a sample of the others. Calls follow the shape of the dose curve; as a rule, active = well fitted inhibition curve with a large enough effect; inconclusive = small, poorly fitted or top-dose-only effect, or effect the other way, or another doubt; inactive = no such curve, though single readings can be large or run the other way. Potencies of inconclusive entries are doubtful fits and often do not repeat.
assay: Nrf2 qHTS screen for inhibitors: counterscreen for cytotoxicity; conditions: A549 ARE-Fluc cells, CellTiter-Fluor viability, 18-24 h; activity change, negative = cytotoxicity: at 46 µM (top of the series)
How it was run: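 Cytotoxicity counterscreen: CellTiter-Fluor fluorescence was measured in A549 ARE_Fluc cells after 18-24 h of compound exposure in a concentration series. The subsequent BugLite luminescent read reports ARE-luciferase activity.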
% is scaled to controls: 0 for no effect and ±100 for the full control effect; potency is read from the fitted curve at half-maximal effect.

Compound	Potency	activity change, negative = cytotoxicity
Cc1ccc(NC(=S)Nc2ccc(C(C)C)cc2)cc1S(=O)(=O)N1CCCCCC1	inconclusive: 25.9 µM [falling, single point]	–
NC(=O)C1CCN(C(=O)Cn2c(-c3cccs3)cc3ccccc32)CC1	inconclusive: 6.51 µM [falling, partial curve, poor fit]	–
CCOC(=O)C1=C(C)NC(=S)NC1c1ccco1 (stereo not given)	–	inactive: 17%
C=CCNC(=S)N/N=C(\C)c1ccccn1	inconclusive: 11.6 µM [falling, single point]	–
CCn1nc(-c2ccc(C)cc2)nc2c(=O)n(C)c(=O)nc1-2	inconclusive: 29.1 µM [falling, single point]	–
O=S(=O)(Nc1ccc(-c2ccc(N3CCCC3)nn2)cc1)c1cccc(C(F)(F)F)c1	inconclusive: 20.6 µM [falling, single point]	–
Cc1ccc(C)c(CN2C(=O)c3ccccc3S(=O)(=O)c3ccc(C(=O)N4CCN(c5ccccc5F)CC4)cc32)c1	inconclusive: 32.6 µM [activator, partial curve, poor fit]	–
C/C(CS(=O)(=O)c1ccccc1)=N\O	–	inactive: 0.149%
CC(C)N(CCC(=O)c1ccc2ccccc2c1)Cc1ccccc1	inconclusive: 25.9 µM [falling, partial curve, poor fit]	–
CCOc1ccccc1C1C2=C(COC2=O)Nc2cc3c(cc21)OCO3 (stereo not given)	inconclusive: 0.651 µM [falling, full curve, poor fit]	–
O=C(O)c1ccccc1N=N/C(=N/Nc1cc(S(=O)(=O)O)ccc1O)c1ccccc1	inconclusive: 14.6 µM [falling, single point]	–
O=C(NCCc1nc2ccccc2n1CCCOc1ccc(Cl)cc1)C1CCCCC1	inconclusive: 29.1 µM [falling, partial curve, poor fit]	–
CCN(CC)CCOC(=O)c1ccc(NC(=O)CCCN2C(=O)S/C(=C/c3ccc(OC)cc3)C2=S)cc1	inconclusive: 18.4 µM [falling, single point]	–
O=C(Nc1nnc(-c2ccco2)o1)c1ccc(N2C(=O)CCC2=O)cc1	–	inactive: -11.5%
CCN(c1ccc(NC(=O)CCNC(=O)c2ccco2)cc1)C(C)C	inconclusive: 2.06 µM [activator, partial curve, poor fit]	–
Cc1cccc(C2=NN(c3ccccc3)[C@@H](C(=O)N3CCOC3=O)[C@@H]2c2ccc([N+](=O)[O-])cc2)c1	inconclusive: 25.9 µM [falling, partial curve, poor fit]	–
COc1ccc(Cn2nnnc2C(c2cc3cccc(C)c3[nH]c2=O)N2CCN(C)CC2)cc1 (stereo not given)	inconclusive: 18.4 µM [activator, partial curve, poor fit]	–
Cc1nn(Cc2ccccc2Cl)c2sc(C(=O)Nc3ccccc3N3CCOCC3)cc12	–	inactive: -7.75%
O=C(Nc1ccc2oc(-c3ccccc3F)nc2c1)c1ccc2c(c1)OCCO2	inconclusive: 18.4 µM [falling, partial curve]	–
C=CCN(c1ccccc1)S(=O)(=O)c1cccc(C(=O)Nc2cccc(C)n2)c1	inconclusive: 7.31 µM [activator, full curve, poor fit]	–

Entries listed so far containing a Cl atom (2):
Compound	Potency	activity change, negative = cytotoxicity
O=C(NCCc1nc2ccccc2n1CCCOc1ccc(Cl)cc1)C1CCCCC1	inconclusive: 29.1 µM [falling, partial curve, poor fit]	–
Cc1nn(Cc2ccccc2Cl)c2sc(C(=O)Nc3ccccc3N3CCOCC3)cc12	–	inactive: -7.75%

Going on with the list:

Compound	Potency	activity change, negative = cytotoxicity
Cc1cc(N/N=C/c2ccccc2Cl)nc(NCc2ccccc2)n1	inconclusive: 25.9 µM [falling, partial curve, poor fit]	–
COCCOC(=O)c1sc2nc[nH]c(=O)c2c1C	–	inactive: 1.04%
C=CCC[C@H](Cc1ccc(F)cc1)C(=O)OC[C@H](Cc1c[nH]c2ccccc12)NC(=O)[C@@H](CC=C)CC(=O)N[C@@H](CO)Cc1ccccc1	inconclusive: 25.9 µM [falling, single point]	–
CC(C)C[C@H](NC(=O)[C@@H]1O[C@H]1C(=O)O)C(=O)NCCCCN=C(N)N	inconclusive: 16.4 µM [falling, single point]	–
CCCCCc1nc2sc3c(c2c(=O)n1NC(=O)c1ccc([N+](=O)[O-])cc1)CC(C)(C)OC3	inconclusive: 20.6 µM [falling, single point]	–
CN(C(=O)c1cccc(NC(=O)Cc2ccc([N+](=O)[O-])cc2)c1)C1CCCCC1	inconclusive: 29.1 µM [falling, single point]	–
Clc1ccc(OCCn2ccnc2)c(Br)c1	–	inactive: 1.33%
COc1cc2c(cc1OC)C(c1ccc(-c3ccc(Cl)cc3Cl)o1)=NCC2	inconclusive: 29.1 µM [falling, partial curve, poor fit]	–
C=C(C)Cn1c(SCC(=O)N/N=C/c2c(O)ccc3ccccc23)nc2ccccc2c1=O	inconclusive: 18.4 µM [falling, single point]	–
Cc1cc(C)cc(N(CCC#N)C(=O)CSC2=Nc3ccccc3C3CC=NN23)c1 (stereo not given)	inconclusive: 20.6 µM [falling, partial curve, poor fit]	–
CC(=O)N(c1ccccc1C)C1CCCC1	–	inactive: 7.27%
COc1cccc(-c2noc(COc3ccccc3Cl)n2)c1	–	inactive: 8.82%
CC1Oc2ccccc2N(CC(=O)N(Cc2ccccc2)Cc2ccccn2)C1=O (stereo not given)	inconclusive: 14.6 µM [activator, partial curve, poor fit]	–
C#CCOCCOCCOCCNc1nc(N2CCN(C(=O)CCCCCCCCCCNC(=O)Cn3cc(CCCCCN)nn3)CC2)nc(N2CCN(C(=O)CCCCCCCCCCNC(=O)Cn3cc(C[C@@H](C)O)nn3)CC2)n1	–	inactive: 0.791%
CN1c2ccc(Cl)cc2-c2nc(SCC(=O)NCc3ccccc3)ncc2S1(=O)=O	–	inactive: -6.08%
c1ccc(-c2nc3ccccc3o2)nc1	–	inactive: -4.62%
c1ccc(-c2csc(NNC3=NCCCCC3)n2)cc1	inconclusive: 23.1 µM [falling, partial curve, poor fit]	–
COc1ccccc1Nc1nn2c(=O)c3ccc(C(=O)NCCC4=CCCCC4)cc3nc2s1	inconclusive: 4.11 µM [falling, full curve, poor fit]	–
Cc1ccc2cc(CN(CCCN3CCOCC3)C(=O)NC3CCCCC3)c(=O)[nH]c2c1C	inconclusive: 20.6 µM [activator, partial curve, poor fit]	–
OC(CNCC(c1ccc(Cl)cc1Cl)c1c[nH]c2ccccc12)c1ccccc1 (stereo not given)	inconclusive: 29.1 µM [falling, single point]	–

From PubChem BioAssay AID504648 (National Center for Advancing Translational Sciences (NCATS), 2011)
